Values of other authors, collected in patent publication US9944597B2, “Polysubstituted pyrroles having microtubule-disrupting, cytotoxic and antitumor activities and methods of use thereof” (THE BOARD OF REGENTS OF THE UNIVERSITY OF TEXAS SYSTEM, priority 2013, dated 2018).

Tested on: MDA-MB-435 (human melanoma cancer cells)
Conditions: Table 53; literature data from Da et al. 2013; read-out: MDA-MB-435 Antiproliferative IC50; cited from earlier work

## COc1cc2c(c(OC)c1OC)-c1ccc(OC)c(=O)cc1[C@@H](NC(C)=O)CC2 [colchicine, Colchicine]
  IC50: 16 ± 2 nM
